Source: article PMC11214836, “ILF3 safeguards telomeres from aberrant homologous recombination as a telomeric R-loop reader”

The chains behind the UniProt entries cited, without tags or fusion partners.
UniProt O00571: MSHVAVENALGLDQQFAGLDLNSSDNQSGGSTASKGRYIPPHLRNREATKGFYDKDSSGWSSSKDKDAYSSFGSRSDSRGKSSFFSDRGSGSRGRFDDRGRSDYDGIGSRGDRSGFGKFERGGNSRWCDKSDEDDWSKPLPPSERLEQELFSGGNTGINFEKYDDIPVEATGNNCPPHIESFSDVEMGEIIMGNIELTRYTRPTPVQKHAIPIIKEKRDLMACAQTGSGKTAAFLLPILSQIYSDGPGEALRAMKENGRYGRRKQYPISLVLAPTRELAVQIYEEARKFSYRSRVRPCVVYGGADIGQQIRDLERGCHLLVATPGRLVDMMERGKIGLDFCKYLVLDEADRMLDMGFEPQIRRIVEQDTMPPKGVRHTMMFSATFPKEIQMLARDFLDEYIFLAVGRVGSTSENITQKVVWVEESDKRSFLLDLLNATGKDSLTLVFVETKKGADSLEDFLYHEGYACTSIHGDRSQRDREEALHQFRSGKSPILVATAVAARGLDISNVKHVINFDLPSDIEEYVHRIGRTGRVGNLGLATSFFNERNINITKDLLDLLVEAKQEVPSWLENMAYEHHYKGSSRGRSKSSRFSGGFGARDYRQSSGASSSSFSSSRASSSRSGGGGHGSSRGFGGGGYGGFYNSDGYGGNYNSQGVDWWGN

Target: T1, BioID-ILF3 (UniProt Q12906)
T1 sequence: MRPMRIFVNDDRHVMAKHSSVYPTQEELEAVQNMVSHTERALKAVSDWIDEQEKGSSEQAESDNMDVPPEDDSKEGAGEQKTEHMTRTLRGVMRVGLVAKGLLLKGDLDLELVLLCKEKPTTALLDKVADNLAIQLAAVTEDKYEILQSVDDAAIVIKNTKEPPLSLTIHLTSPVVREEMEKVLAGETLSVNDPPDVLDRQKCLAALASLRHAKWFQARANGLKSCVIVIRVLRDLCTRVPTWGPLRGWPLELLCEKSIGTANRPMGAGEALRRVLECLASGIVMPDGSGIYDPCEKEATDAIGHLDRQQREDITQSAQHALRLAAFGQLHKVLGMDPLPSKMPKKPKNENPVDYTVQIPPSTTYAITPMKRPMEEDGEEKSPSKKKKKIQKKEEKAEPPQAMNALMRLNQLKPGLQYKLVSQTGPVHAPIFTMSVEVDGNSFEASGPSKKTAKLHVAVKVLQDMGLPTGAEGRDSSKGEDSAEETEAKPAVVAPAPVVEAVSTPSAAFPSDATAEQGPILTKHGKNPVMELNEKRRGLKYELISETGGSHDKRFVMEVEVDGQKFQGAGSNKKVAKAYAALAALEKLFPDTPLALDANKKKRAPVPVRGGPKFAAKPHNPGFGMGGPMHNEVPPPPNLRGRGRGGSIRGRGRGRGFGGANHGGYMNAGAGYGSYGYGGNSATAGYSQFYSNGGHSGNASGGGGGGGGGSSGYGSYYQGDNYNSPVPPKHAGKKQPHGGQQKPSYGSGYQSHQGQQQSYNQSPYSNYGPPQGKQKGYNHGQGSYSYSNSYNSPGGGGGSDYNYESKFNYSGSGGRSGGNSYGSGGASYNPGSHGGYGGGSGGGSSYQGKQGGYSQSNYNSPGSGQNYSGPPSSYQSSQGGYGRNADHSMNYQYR
Test: proximity labelling; BioID in U2OS cells stably expressing BioID-ILF3; 50 umol/L biotin for 16 h, RIPA lysis, streptavidin magnetic beads, LC-MS/MS; BioID-NLS as background control

- binding: binds
Molecule: DDX3X (from UniProt O00571 1-662) (enzyme)

- binding: binds
B1: DHX30 (enzyme, UniProt Q7L2E3 1-1194)
chain: MFSLDSFRKDRAQHRQRQCKLPPPRLPPMCVNPTPGGTISRASRDLLKEFPQPKNLLNSVIGRALGISHAKDKLVYVHTNGPKKKKVTLHIKWPKSVEVEGYGSKKIDAERQAAAAACQLFKGWGLLGPRNELFDAAKYRVLADRFGSPADSWWRPEPTMPPTSWRQLNPESIRPGGPGGLSRSLGREEEEDEEEELEEGTIDVTDFLSMTQQDSHAPLRDSRGSSFEMTDDDSAIRALTQFPLPKNLLAKVIQIATSSSTAKNLMQFHTVGTKTKLSTLTLLWPCPMTFVAKGRRKAEAENKAAALACKKLKSLGLVDRNNEPLTHAMYNLASLRELGETQRRPCTIQVPEPILRKIETFLNHYPVESSWIAPELRLQSDDILPLGKDSGPLSDPITGKPYVPLLEAEEVRLSQSLLELWRRRGPVWQEAPQLPVDPHRDTILNAIEQHPVVVISGDTGCGKTTRIPQLLLERYVTEGRGARCNVIITQPRRISAVSVAQRVSHELGPSLRRNVGFQVRLESKPPSRGGALLFCTVGILLRKLQSNPSLEGVSHVIVDEVHERDVNTDFLLILLKGLQRLNPALRLVLMSATGDNERFSRYFGGCPVIKVPGFMYPVKEHYLEDILAKLGKHQYLHRHRHHESEDECALDLDLVTDLVLHIDARGEPGGILCFLPGWQEIKGVQQRLQEALGMHESKYLILPVHSNIPMMDQKAIFQQPPVGVRKIVLATNIAETSITINDIVHVVDSGLHKEERYDLKTKVSCLETVWVSRANVIQRRGRAGRCQSGFAYHLFPRSRLEKMVPFQVPEILRTPLENLVLQAKIHMPEKTAVEFLSKAVDSPNIKAVDEAVILLQEIGVLDQREYLTTLGQRLAHISTDPRLAKAIVLAAIFRCLHPLLVVVSCLTRDPFSSSLQNRAEVDKVKALLSHDSGSDHLAFVRAVAGWEEVLRWQDRSSRENYLEENLLYAPSLRFIHGLIKQFSENIYEAFLVGKPSDCTLASAQCNEYSEEEELVKGVLMAGLYPNLIQVRQGKVTRQGKFKPNSVTYRTKSGNILLHKSTINREATRLRSRWLTYFMAVKSNGSVFVRDSSQVHPLAVLLLTDGDVHIRDDGRRATISLSDSDLLRLEGDSRTVRLLKELRRALGRMVERSLRSELAALPPSVQEEHGQLLALLAELLRGPCGSFDVRKTADD

These are yes or no findings as the source states them, for the method shown. In cells and extracts the contact can be indirect. A yes stands for co-enrichment or nearness to the bait. Other partners may have been found. One block for each molecule: values may come before it.
